In US10682419B2 (Onyx Therapeutics, Inc., priority 2012, dated 2020):

Assay: general procedure: solution-phase peptide synthesis; HBTU/HOBt/DIEA; DMTMM/NMM; HATU/DIPEA

| Substance | step yield (late stage modification step) [%] | also measured |
| --- | --- | --- |
| 4-((4S,7S,10S,13S)-10-benzyl-7-isobutyl-15-methyl-13-((R)-2-methyloxirane-2-carbonyl)-2,5,8,11-tetraoxo-4-phenethyl-3,6,9,12-tetraazahexadecyl)-4-(4-(pent-4-ynoyloxy)benzyl)morpholin-4-ium Bromide (27) |  | step yield (late stage modification step, bromide): 21% |
| (2S)—N—((S)-1-((2S,4S)-2-hydroxy-1-iodo-2,6-dimethyl-3-oxoheptan-4-ylcarbamoyl)-2-phenylethyl)-2-((S)-2-(2-morpholinoacetamido)-4-phenylbutanamido)-4-methylpentanamide | 100 |  |
| (4S,7S,10S,13S,15R)-10-Benzyl-15-hydroxy-7,13-diisobutyl-15-methyl-1-morpholino-2,5,8,11,14-pentaoxo-4-phenethyl-3,6,9,12-tetraazahexadecan-16-yl 2-fluoro-5-(prop-2-yn-1-ylcarbamoyl)benzenesulfonate (5) |  | step yield (coupling step): 32% |
| (4S,7S,10S,13S,15R)-10-Benzyl-15-hydroxy-7,13-diisobutyl-15-methyl-1-morpholino-2,5,8,11,14-pentaoxo-4-phenethyl-3,6,9,12-tetraazahexadecan-16-yl methyl prop-2-yn-1-yl Phosphate | 31 |  |
| (4S,7S,10S,13S,15S)-10-Benzyl-16-iodo-7,13-diisobutyl-15-methyl-1-morpholino-2,5,8,11,14-pentaoxo-4-phenethyl-3,6,9,12-tetraazahexadecan-15-yl 4-oxo-4-(prop-2-yn-1-ylamino)butanoate (23) | 66 |  |
| (4S,7S,10S,13S,15S)-10-benzyl-16-iodo-7,13-diisobutyl-15-methyl-1-morpholino-2,5,8,11,14-pentaoxo-4-phenethyl-3,6,9,12-tetraazahexadecan-15-yl 4-methoxybenzyl succinate | 90 |  |
| Benzyl 2-(4-((((4S,7S,10S,13S,15R)-10-benzyl-15-hydroxy-7,13-diisobutyl-15-methyl-1-morpholino-2,5,8,11,14-pentaoxo-4-phenethyl-3,6,9,12-tetraazahexadecan-16-yl)oxy)sulfonyl)-3,5-dimethylphenoxy)acetate (8) |  | step yield (coupling step): 82.8% |
